According to article PMC6498657:
These are yes or no findings as the source states them, for the method shown. Binding seen in cells or lysates may run through a third protein. Some entries that bind do so weakly or less than the wild type. Tags and fused reporters may be left off the sequences shown. Blank lines part the entries; values can stand above or below the molecule they belong to.

Sequences of proteins named here, by UniProt entry; tags and fusion partners are left off. A change or cut given only in a name is not applied to a line headed by its entry. A line that says so, or that is headed by a name, gives the form on record, which may keep a tag or linker.
UniProt Q14790: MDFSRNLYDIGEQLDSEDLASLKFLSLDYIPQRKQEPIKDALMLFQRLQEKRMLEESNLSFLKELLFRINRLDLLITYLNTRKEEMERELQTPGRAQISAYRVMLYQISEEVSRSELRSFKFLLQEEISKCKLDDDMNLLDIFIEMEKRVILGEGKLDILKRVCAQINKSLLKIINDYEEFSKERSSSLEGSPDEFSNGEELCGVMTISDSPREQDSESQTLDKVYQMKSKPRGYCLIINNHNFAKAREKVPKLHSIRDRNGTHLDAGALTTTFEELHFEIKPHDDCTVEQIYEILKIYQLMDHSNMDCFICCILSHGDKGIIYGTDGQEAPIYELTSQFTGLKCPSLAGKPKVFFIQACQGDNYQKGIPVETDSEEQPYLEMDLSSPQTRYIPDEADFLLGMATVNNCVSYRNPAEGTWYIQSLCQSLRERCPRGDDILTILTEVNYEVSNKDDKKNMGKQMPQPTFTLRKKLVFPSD
HIS-CASP8M (Q14790, form named): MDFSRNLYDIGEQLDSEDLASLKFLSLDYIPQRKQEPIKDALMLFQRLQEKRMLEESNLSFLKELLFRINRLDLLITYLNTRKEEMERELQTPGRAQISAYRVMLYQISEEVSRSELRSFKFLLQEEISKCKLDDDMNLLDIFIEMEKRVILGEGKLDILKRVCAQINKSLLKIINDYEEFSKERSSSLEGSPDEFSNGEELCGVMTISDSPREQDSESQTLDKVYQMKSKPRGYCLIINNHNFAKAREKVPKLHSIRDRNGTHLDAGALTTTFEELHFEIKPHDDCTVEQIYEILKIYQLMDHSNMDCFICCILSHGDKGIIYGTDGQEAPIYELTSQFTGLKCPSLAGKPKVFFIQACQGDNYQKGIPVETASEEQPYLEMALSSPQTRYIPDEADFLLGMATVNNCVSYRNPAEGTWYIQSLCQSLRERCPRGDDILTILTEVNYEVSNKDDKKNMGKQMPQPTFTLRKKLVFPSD

How the values were obtained:
FLAG-GMEB1 (human) = target: T1, FLAG-GMEB1 (human) (UniProt Q9Y692); assay: co-IP; tagged plasmids co-transfected in HEK293FT cells; lysis buffer 20 mM Tris-HCl pH 7.5, 150 mM NaCl, 0.5% Triton; antibody 1 h and protein A beads 2 h at 4 °C; some panels with GMEB1, CASP8 or CFLARL siRNA or with GMEB1 overexpression
T1 sequence: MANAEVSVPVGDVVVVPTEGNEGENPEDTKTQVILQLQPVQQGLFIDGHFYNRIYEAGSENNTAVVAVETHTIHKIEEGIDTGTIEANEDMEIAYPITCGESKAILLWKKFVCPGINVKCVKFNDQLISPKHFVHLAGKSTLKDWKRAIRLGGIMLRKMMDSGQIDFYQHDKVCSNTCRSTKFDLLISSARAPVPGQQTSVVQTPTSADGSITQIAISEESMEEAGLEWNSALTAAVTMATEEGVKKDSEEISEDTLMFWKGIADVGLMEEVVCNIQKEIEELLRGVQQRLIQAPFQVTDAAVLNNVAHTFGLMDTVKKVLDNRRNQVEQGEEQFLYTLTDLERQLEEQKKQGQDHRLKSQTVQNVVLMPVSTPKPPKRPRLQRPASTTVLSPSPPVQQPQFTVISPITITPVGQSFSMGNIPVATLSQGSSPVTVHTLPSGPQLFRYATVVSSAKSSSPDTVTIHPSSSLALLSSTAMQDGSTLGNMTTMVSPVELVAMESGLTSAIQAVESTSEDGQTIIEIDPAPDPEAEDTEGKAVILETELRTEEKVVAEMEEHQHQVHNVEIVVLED

His-tagged USP40 (human) = target: T2, His-tagged USP40 (human) (UniProt Q9NVE5); assay: co-IP; tagged GMEB1 and tagged USP40, with a reverse experiment; cells not stated for this experiment
T2 sequence: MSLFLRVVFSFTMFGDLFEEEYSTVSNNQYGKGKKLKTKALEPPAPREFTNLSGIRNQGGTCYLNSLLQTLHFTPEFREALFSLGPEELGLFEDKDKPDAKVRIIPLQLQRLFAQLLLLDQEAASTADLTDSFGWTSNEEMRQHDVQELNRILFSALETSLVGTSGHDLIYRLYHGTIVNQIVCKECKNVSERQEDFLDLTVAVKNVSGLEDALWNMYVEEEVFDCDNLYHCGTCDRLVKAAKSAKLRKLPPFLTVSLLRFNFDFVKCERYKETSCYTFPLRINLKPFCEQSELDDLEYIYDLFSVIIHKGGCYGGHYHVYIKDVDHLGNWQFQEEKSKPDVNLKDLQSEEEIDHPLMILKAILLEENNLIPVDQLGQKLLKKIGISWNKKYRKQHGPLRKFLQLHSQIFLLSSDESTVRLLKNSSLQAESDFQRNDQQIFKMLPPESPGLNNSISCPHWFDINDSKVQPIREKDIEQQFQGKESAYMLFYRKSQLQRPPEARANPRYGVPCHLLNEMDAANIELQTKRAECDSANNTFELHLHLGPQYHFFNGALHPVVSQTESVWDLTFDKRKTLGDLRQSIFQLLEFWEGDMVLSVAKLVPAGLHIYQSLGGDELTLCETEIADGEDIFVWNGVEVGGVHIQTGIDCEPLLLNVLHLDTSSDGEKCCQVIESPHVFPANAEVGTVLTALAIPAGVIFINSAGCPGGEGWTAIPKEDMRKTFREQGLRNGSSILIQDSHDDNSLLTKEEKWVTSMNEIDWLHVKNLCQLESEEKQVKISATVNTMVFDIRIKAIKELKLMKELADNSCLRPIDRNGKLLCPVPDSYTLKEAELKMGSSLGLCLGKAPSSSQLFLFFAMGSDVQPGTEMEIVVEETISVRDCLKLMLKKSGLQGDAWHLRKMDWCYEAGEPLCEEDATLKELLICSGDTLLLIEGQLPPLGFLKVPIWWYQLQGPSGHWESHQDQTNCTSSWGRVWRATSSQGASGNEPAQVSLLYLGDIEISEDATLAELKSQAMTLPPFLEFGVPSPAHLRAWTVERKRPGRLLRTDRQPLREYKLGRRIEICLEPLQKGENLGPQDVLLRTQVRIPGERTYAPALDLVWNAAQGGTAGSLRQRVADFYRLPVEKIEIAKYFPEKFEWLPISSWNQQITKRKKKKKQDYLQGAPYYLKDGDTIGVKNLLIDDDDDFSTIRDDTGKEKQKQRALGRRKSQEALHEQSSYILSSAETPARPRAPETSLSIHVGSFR

binding (FLAG-GMEB1 (human)): binds
Molecule: HIS-CASP8M (from UniProt Q14790 1-479) (enzyme)

binding (His-tagged USP40 (human)): binds
B1: HA-tagged GMEB1 (glucocorticoid modulatory element-binding protein 1) (protein, UniProt Q9Y692 1-573)
chain: T1 sequence
